This is an account of results in paper PMC8129138.

Protein sequences, listed by entry. Tags and fused reporters are not part of them. Lines headed by an entry give the natural chain unless they say otherwise; changes in a name come on top.
UniProt Q9H1P3: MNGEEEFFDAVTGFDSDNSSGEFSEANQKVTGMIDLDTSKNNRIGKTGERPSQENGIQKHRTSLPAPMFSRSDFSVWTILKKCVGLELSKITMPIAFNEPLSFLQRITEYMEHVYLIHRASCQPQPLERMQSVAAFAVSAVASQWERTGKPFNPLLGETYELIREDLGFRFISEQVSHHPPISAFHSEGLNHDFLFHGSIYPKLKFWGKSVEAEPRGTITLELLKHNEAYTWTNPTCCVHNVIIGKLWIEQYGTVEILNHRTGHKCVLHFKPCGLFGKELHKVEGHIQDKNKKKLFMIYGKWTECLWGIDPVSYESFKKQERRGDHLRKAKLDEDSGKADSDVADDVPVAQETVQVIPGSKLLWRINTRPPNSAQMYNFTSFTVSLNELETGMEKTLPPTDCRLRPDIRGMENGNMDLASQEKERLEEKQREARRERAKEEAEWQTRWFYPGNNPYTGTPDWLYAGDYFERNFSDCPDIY
UniProt P35222: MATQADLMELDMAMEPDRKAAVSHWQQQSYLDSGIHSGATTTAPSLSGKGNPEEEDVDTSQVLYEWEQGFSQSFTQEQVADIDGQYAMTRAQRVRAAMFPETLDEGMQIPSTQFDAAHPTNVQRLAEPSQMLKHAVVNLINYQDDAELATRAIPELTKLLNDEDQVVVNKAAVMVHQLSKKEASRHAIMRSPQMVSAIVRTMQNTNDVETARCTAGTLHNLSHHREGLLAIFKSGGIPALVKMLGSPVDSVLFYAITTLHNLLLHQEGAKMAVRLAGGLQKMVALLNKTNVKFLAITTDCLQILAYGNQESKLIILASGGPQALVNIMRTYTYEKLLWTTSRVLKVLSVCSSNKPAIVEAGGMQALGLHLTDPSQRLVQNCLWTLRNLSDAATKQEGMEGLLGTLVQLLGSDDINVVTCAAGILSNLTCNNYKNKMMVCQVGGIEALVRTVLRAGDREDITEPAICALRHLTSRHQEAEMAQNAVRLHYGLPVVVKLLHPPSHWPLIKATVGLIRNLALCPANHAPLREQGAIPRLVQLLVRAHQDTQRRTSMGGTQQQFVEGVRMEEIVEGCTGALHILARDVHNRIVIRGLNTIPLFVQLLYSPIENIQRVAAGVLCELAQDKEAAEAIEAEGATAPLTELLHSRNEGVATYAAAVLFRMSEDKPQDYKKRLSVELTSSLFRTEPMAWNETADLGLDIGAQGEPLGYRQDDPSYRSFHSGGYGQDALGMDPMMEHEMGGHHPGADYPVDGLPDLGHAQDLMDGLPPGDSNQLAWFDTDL
UniProt Q02248: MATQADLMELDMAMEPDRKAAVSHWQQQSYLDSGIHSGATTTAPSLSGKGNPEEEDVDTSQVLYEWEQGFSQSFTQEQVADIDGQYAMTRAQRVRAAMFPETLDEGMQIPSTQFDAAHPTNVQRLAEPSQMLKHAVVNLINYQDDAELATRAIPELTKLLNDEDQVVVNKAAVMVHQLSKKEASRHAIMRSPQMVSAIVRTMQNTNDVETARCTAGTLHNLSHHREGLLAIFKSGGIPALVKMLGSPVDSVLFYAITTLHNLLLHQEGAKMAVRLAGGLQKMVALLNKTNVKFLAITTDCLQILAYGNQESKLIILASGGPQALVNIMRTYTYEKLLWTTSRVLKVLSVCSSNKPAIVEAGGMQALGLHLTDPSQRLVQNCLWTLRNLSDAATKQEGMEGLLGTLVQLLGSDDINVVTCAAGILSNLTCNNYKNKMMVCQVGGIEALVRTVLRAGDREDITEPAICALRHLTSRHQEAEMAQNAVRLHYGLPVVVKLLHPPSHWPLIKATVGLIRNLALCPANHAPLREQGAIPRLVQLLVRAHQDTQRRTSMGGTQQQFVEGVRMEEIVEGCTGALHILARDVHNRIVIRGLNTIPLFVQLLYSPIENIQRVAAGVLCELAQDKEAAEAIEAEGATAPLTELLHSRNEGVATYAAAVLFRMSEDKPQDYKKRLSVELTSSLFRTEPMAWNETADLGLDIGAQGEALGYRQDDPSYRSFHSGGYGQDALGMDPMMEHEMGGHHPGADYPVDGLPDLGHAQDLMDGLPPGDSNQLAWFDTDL

Assay [1] addresses FLAG-tagged OSBPL2 (oxysterol-binding protein-like 2) (UniProt Q9H1P3). Put plainly: co-IP; HEK293T cells co-transfected for 48 h with HA-tagged β-catenin or its truncated fractions and FLAG-tagged OSBPL2 or ORD; RIPA lysis buffer with 0.2 mM PMSF; overnight with anti-FLAG-tag M2 affinity gel at 4 °C; western blotting. (In western blotting, separated proteins are transferred to a membrane and probed.)

Assay [2] has as its target T1, FLAG-tagged OSBPL2 expressed from the FLAG-tagged Osbpl2 plasmid in 3T3-L1 preadipocytes (UniProt Q8BX94).
T1 sequence: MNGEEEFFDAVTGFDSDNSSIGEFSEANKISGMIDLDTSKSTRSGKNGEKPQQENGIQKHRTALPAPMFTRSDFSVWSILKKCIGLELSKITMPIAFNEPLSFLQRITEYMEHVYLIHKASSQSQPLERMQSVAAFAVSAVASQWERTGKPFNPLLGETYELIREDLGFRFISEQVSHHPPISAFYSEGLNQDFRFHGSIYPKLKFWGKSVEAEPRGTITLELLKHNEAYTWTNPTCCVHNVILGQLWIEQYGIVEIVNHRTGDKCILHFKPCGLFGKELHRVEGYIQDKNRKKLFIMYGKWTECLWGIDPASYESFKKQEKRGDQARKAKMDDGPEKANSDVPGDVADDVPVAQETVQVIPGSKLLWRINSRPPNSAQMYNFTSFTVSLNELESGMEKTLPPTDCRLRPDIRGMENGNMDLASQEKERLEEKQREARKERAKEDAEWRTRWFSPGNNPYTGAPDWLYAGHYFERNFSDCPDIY
Put plainly: co-IP; 3T3-L1 preadipocytes transfected with FLAG-tagged Osbpl2 plasmid for 48 h; FLAG-tagged OSBPL2 with endogenous β-catenin.

Results are given in words; binding and its absence hold for the method and conditions named. Binding seen in cells or lysates may run through a third protein. Some binding calls cover weakened binding; strength is not graded here. For some of these results: Tags and fused reporters may be left off the sequences shown.

“HA-tagged C-terminal fraction of β-catenin (aa 432–781) (from UniProt P35222 432-781) (domain or fragment)”: the binding result in assay [1] was “binds”.

As for “HA-tagged SRP fraction of β-catenin (aa 142–431) (from UniProt P35222 142-431) (domain or fragment)”, the binding entry in assay [1] is on record as “binds”.

As to “HA-tagged β-catenin (from UniProt P35222 1-781)”, the binding entry in assay [1] is listed as “binds”. Regarding “endogenous β-catenin of 3T3-L1 preadipocytes (from UniProt Q02248 1-781)”, the binding result in assay [2] is “binds”.
